Measured values reported in PMC3646045.

The sequences below were run against RprY (rRprY, phosphorylated) (Porphyromonas gingivalis ATCC 33277) (UniProt B2RK10) (assay: EMSA). Details: 0-35.2 pmol, poly[d(I-C)], specificity by 50-100X unlabeled probe, pH and temperature not given, recombinant protein, residues 1-245, protein details: N-terminal 6xHis (pET28a), label: DIG, probe letters rebuilt from the primers and the genome.
“GCTGTGTTTGTTGTTACCAGACAAAATCCAACATCCATGCCAACGCCTAAAGACTGACATTTTGTCCTTTTTTACGTTTTCCCCCTCCTACCGTTTATATCCAAAGCAAGGATTATTCATTATAACACATGGTATAAGAAAGAAAGTAAAGGTTCCATACAGCTTATATGACCTAATCGAATACCTTTGTCCGTGGAAAATCAAAAAATACCCTACTATGAAACTCAGAAC (double strand) [clpB promoter]”: binds.
“AATAAAAATTTTCTCAGACCACGTTTTCAGAACTGAAATACACCGGATTTTTCAGTACACGTCAATCATTCGGAAGCGAAAAAAGGCAGTCTGAGCGAAAGAATGCGCCAGATTGTCAGTTCCGGACCCTGTGGCACCGGATTTGTCGTTCCTTTCGACGGAATAGAAACAAACAAAACATTAACAGATAATAATACACTATG (double strand) [htpG promoter]”: no binding.
“CACCTTTTTTCCGACCGACTCCTCCTTTTTTCTGCCAACGAGCAGATGACTACACGTACAATCCTGCCATTCTGACAGCGAATAAGCACATTCCGACAGGAATCAGTCAGGAAATCGGCATTGGTATAGCTATTGATATAAAAATTGCGGAGCTACATAAGAGGCTTCCCATTTGTACAAGCAAACAATCAACTAACAATAACAAACCAAGCAACA (double strand) [groES promoter]”: binds.
“TCCCATAATTCTATATTCGTTTTTTGTTGTTGTCTCGTTTTCTTTCGTTGTTTATGCCCCATCGAAAGGGTCGTACGCTACAACATAAACAATTTGCGTGCCAAAAATCAAACCGGCTCCGATACTGCCAAAAGGTGACAGAATGTCACTACATGAGGCACACAATAGCTCTTAAACATGACGAATAATGACTCTGTACA (double strand) [dnaK promoter]”: binds.

A negative result means that nothing was seen under these conditions. Construct, isoform or probe ends are uncertain for at least one entry.
